Results deposited as PubChem BioAssay AID504774 (Drosophila RNAi Screening Center, 2011)

- Aim: 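Fly genes whose loss alters survival after alkylation damage to DNA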 (primary screen)
- System: Drosophila Kc167 cells
- Reagent: long dsRNA against Drosophila genes, about 0.25 µg dsRNA per well
- Timing: about 6 days: 3 days knock-down, then 3 days with or without MMS
- Treatment: methyl methanesulphonate 0.004% (w/v) for 3 days after knock-down
- Read-out: 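ATP-dependent luminescence as a measure of live cells in MMS-exposed wells, quantile normalised within each plate, with replicate values also given as a mean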
- Scale: mean viability with MMS and viability with MMS: higher = more surviving cells after MMS
In all, the deposit lists about 23,000 reagents; this is an unselected part of those that have a named target and a result. 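Values are quantile-normalised luminescence on an arbitrary scale; higher means more cells surviving MMS.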

| target gene | dsRNA | mean viability with MMS | viability with MMS, replicate 1 | viability with MMS, replicate 2 |
| --- | --- | --- | --- | --- |
| Arms (Ankyrin repeat-rich membrane spanning) | DRSC03856 | 3.54e6 | 4.05e6 | 3.97e6 |
| Arms (Ankyrin repeat-rich membrane spanning) | DRSC03857 | 3.51e6 | 4.08e6 | 3.88e6 |
| Arms (Ankyrin repeat-rich membrane spanning) | DRSC04052 | 3.68e6 | 4.12e6 | 4.24e6 |
| Arms (Ankyrin repeat-rich membrane spanning) | DRSC04256 | 3.35e6 | 3.74e6 | 3.79e6 |
| Fib (Fibrillarin) | DRSC04614 | 3.24e6 | 3.60e6 | 3.63e6 |
| CG14182 | DRSC10181 | 3.53e6 | 3.90e6 | 4.08e6 |
| Mis12 | DRSC10299 | 3.45e6 | 3.88e6 | 3.94e6 |
| CG12826 | DRSC06175 | 3.42e6 | 3.92e6 | 3.86e6 |
| CG9813 | DRSC16569 | 3.46e6 | 4.03e6 | 3.79e6 |
| lectin-37Da | DRSC03278 | 3.65e6 | 4.05e6 | 3.94e6 |
| lectin-37Da | DRSC22729 | 3.63e6 | 4.10e6 | 4.08e6 |
| Vajk1 | DRSC01882 | 3.66e6 | 4.11e6 | 4.14e6 |
| CG13251 | DRSC11699 | 3.52e6 | 3.85e6 | 4.12e6 |
| Had1 (beta Hydroxy acid dehydrogenase 1) | DRSC20216 | 3.51e6 | 4.01e6 | 3.95e6 |
| Send2 (Spermathecal endopeptidase 2) | DRSC01906 | 3.59e6 | 4.10e6 | 4.03e6 |
| CG31797 | DRSC02476 | 3.62e6 | 4.05e6 | 4.15e6 |
| CG31797 | DRSC02477 | 3.65e6 | 4.12e6 | 4.16e6 |
| CG10953 | DRSC06021 | 3.71e6 | 4.20e6 | 4.16e6 |
| CG18265 | DRSC10310 | 3.72e6 | 4.15e6 | 4.20e6 |
| CtsL3 (Cathepsin L3) | DRSC12171 | 3.65e6 | 4.09e6 | 4.23e6 |
| SC35 (SR family splicing factor SC35) | DRSC02502 | 3.38e6 | 3.85e6 | 3.79e6 |
| SC35 (SR family splicing factor SC35) | DRSC03425 | 3.45e6 | 3.90e6 | 3.93e6 |
| CG17321 | DRSC02598 | 3.71e6 | 4.15e6 | 4.20e6 |
| CG13928 | DRSC08397 | 3.60e6 | 4.19e6 | 3.95e6 |
| CG30002 | DRSC05182 | 3.52e6 | 4.02e6 | 3.98e6 |
| CG12995 | DRSC19515 | 3.43e6 | 3.90e6 | 3.86e6 |
| CG9962 | DRSC00739 | 3.47e6 | 3.92e6 | 3.92e6 |
| AstA (Allatostatin A) | DRSC14634 | 3.40e6 | 3.75e6 | 3.88e6 |

3 entries from above, reformatted:
Arms (Ankyrin repeat-rich membrane spanning) [DRSC03856]
- mean viability with MMS: 3.54e6
- viability with MMS, replicate 1: 4.05e6
- viability with MMS, replicate 2: 3.97e6

Arms (Ankyrin repeat-rich membrane spanning) [DRSC03857]
- mean viability with MMS: 3.51e6
- viability with MMS, replicate 1: 4.08e6
- viability with MMS, replicate 2: 3.88e6

Arms (Ankyrin repeat-rich membrane spanning) [DRSC04052]
- mean viability with MMS: 3.68e6
- viability with MMS, replicate 1: 4.12e6
- viability with MMS, replicate 2: 4.24e6
